Source: US20100183876 (published 2010)

Assay: peptide synthesis
Conditions: purification step

Substance: (Aib^8,35)hGLP-1(7-36)NH2
- final HPLC purity (HPLC (area %)): 97.9% (area)
- step yield (according to HPLC assay): 92%
